# Assay results as given in article PMC12040169 (PLOS Biology, 2025).
# Some of the results follow.
# Tested on: T1, CTL2-GFP (C. trachomatis L2/434/Bu, GFP-expressing)
# T1 construct: L2/434/Bu, GFP-expressing
# Design: species or system HeLa; Intracellular C. trachomatis growth in HeLa cells, bulk GFP fluorescence relative to DMSO
# Conditions: bulk GFP, single well; 28.5 h, 10 µM; inhibitor
row,Structure (SMILES),% of control remaining [%]
1,Nc1c(-c2cccc(C(F)(F)F)c2)cnc2cccnc12 [CBK081187],111.91
2,COc1cccc(NC(=O)CSc2ccc(Cl)cc2)c1 [CBK263811],114.548
3,Cc1cc(F)c(S(N)(=O)=O)cc1NC(=O)c1ccc(C(F)(F)F)cc1 [CBK051448],106.658
4,O=C1CC(C(=O)Nc2ccccc2)NC(Nc2cc(Cl)cc(Cl)c2)=N1 (stereo not shown) [CBK268752],110.542
5,O=C(C1=C(O)C(=O)N(CCCN2CCOCC2)C1c1cccs1)c1cccs1 (stereo not shown) [CBK264533],114.356
6,O=C1CCCN1c1ccc(S(=O)(=O)NCC2CC3CCC2C3)cc1 (stereo not shown) [CBK282841],95.099
7,Cn1c(C(=O)NCCc2cnccn2)cc2cc(Cl)ccc21 [CBK281575],93.1898
8,Cc1ccc2nc(COC(=O)c3cc(-c4ccccc4)nn3-c3ccccc3)cc(=O)n2c1 [CBK296959],154.622
9,Cc1nn(C)cc1-c1cncn1C(C)c1ccc2c(c1)CCCO2 (stereo not shown) [CBK281798],112.72
10,CCOc1ccc(Oc2nc(N(C)C)nc(N3CCOCC3)n2)nn1 [CBK269585],97.3603
11,COc1nc(NCCc2ccc(OC)c(OC)c2)nc(OC)n1 [CBK266304],162.357
12,CCOCCCC(=O)N1CCn2c(nnc2-c2cncc(Br)c2)C1 [CBK304764],143.919
13,c1ccc2c(c1)OCc1nnc(CCN3CCCCC3)n1-2 [CBK005285],154.999
14,c1ccc(N2CCN(c3nc(-c4ccoc4)cn4ccnc34)CC2)nc1 [CBK066522],110.948
15,COCc1cn(C[C@H]2CC3CCN2C[C@@H]3C(=O)NC2CC2)nn1 (stereo partly shown) [CBK288835],124.023
16,CCCn1c(NC(=O)C(C)Oc2ccc(Cl)cc2Cl)nc2ccccc21 (stereo not shown) [CBK296979],36.2331
17,Cn1nc(C(=O)NCC2(c3cccc(F)c3)CCCC2)ccc1=O [CBK281437],125.374
18,CC(=O)Nc1cccc(-c2cncc(NCCc3c[nH]c4ccccc34)n2)c1 [CBK037820],109.571
19,O=C(c1ccco1)N1CCC[C@H]1[C@H](O)c1nc2ccccc2s1 [CBK284290],101.889
20,Cc1ccccc1-c1noc(CNC(Cn2ccnc2)C(C)C)n1 (stereo not shown) [CBK307560],112.562
21,CCNC(=O)C1(NC(=O)Cc2cn3cccc(C)c3n2)CCCCC1 [CBK304933],100.038
22,Cn1ncc2c1CCCN(C(=O)CCc1ccccc1F)C2 [CBK285255],141.733

# Copied from above, two compounds:
row,Structure (SMILES),% of control remaining [%]
16,CCCn1c(NC(=O)C(C)Oc2ccc(Cl)cc2Cl)nc2ccccc21 (stereo not shown) [CBK296979],36.2331
17,Cn1nc(C(=O)NCC2(c3cccc(F)c3)CCCC2)ccc1=O [CBK281437],125.374
